The results in this text go back to patent publication US20120252820A1, “METHODS OF TREATING FUNGAL INFECTIONS” (NORTHEASTERN UNIVERSITY, priority 2008, published 2012).

Values after ≈ are worked out from the molar mass of the structure shown.

The test concerns primary human fibroblast cells IMR-90. The test is described as follows: In vitro cytotoxicity assay, alamar blue reduction. The class given is cell-based. Conditions: IMR-90, miconazole alone. For orientation: Alamar Blue is a resazurin reagent that responds to reducing activity.

As a reminder, the EC50 is the midpoint of the concentration-response curve. High values mean a need for much substance, low ones an effect from little substance. In turn, `Clc1ccc(COC(Cn2ccnc2)c2ccc(Cl)cc2Cl)c(Cl)c1` (stereo not shown) [miconazole] registered a concentration for a half-maximal effect (EC50) of 16 µg/mL (≈ 38.4 µM).
